{"source": "PubChem BioAssay AID1159578, Peter MacCallum Cancer Centre – 2015", "assay": "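Knock-downs that alter how fast lymphatic endothelial cells migrate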 (primary screen)", "cell system": "human lymphatic endothelial cells", "reagent": "siRNA pool against human genes, 40 nM", "time to read-out": "48 h after transfection", "read-out": "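High-content imaging of dye-stained cells in a scratch assay measures filled wound area and nuclei per well; duplicate means given as ratio to mock and robust z-score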", "scale": "migration robust z-score: higher = faster migration into the scratch; nuclei per well: higher = more cells in the well", "active means": "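Migration changed when robust z exceeds 2 or falls below -2 and mean nuclei number is at least 3300; otherwise not called changed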", "meaning of the calls": "active = migration changed; inactive = no migration change, or too few cells", "note": "This is a random part of about 18,000 reagents. In the full data, about 1,030 (5.7%) got an active call. 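Inactive calls also include pools with fewer than 3300 nuclei, whose migration was not assessed.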 Raw values are not corrected between plates. Unmarked entries are inactive. Not all columns of the deposit are shown."}
{"Target gene":"SMIM8 (small integral membrane protein 8)","migration robust z-score":-0.54,"nuclei per well, duplicate mean":4904}
{"Target gene":"MT2A (metallothionein 2A)","migration robust z-score":-1.5,"nuclei per well, duplicate mean":5590}
{"Target gene":"CRACR2B (calcium release activated channel regulator 2B)","migration robust z-score":-1.98,"nuclei per well, duplicate mean":5069}
{"Target gene":"MMUT (methylmalonyl-CoA mutase)","migration robust z-score":1.01,"nuclei per well, duplicate mean":5892}
{"Target gene":"EEF1D (eukaryotic translation elongation factor 1 delta)","migration robust z-score":-0.24,"nuclei per well, duplicate mean":6660}
{"Target gene":"TATDN2 (TatD DNase domain containing 2)","migration robust z-score":1.87,"nuclei per well, duplicate mean":5678}
{"Target gene":"PBX2 (PBX homeobox 2)","migration robust z-score":0.8,"nuclei per well, duplicate mean":6054}
{"Target gene":"FAM78A (family with sequence similarity 78 member A)","migration robust z-score":-1.37,"nuclei per well, duplicate mean":5896}
{"Target gene":"NLRP7 (NLR family pyrin domain containing 7)","migration robust z-score":0.15,"nuclei per well, duplicate mean":4006}
{"Target gene":"DPM2 (dolichyl-phosphate mannosyltransferase subunit 2, regulatory)","migration robust z-score":-0.34,"nuclei per well, duplicate mean":5096}
{"Target gene":"CGB3 (chorionic gonadotropin subunit beta 3)","migration robust z-score":1.07,"nuclei per well, duplicate mean":5647}

Taken from above.
Result for NLRP7 (NLR family pyrin domain containing 7) in “migration robust z-score”: 0.15
TATDN2 (TatD DNase domain containing 2), migration robust z-score: 1.87
Under “nuclei per well, duplicate mean”, MMUT (methylmalonyl-CoA mutase) has 5892
Result for FAM78A (family with sequence similarity 78 member A) under “nuclei per well, duplicate mean”: 5896

Continued:
{"Target gene":"LBP (lipopolysaccharide binding protein)","migration robust z-score":-1.84,"nuclei per well, duplicate mean":5016}
{"Target gene":"ITGBL1 (integrin subunit beta like 1)","migration robust z-score":-0.92,"nuclei per well, duplicate mean":6156}
{"Target gene":"ATXN2L (ataxin 2 like)","migration robust z-score":-0.26,"nuclei per well, duplicate mean":6316}
{"Target gene":"HS3ST1 (heparan sulfate-glucosamine 3-sulfotransferase 1)","migration robust z-score":"-2.16 (active)","nuclei per well, duplicate mean":5762}
{"Target gene":"RTN3 (reticulon 3)","migration robust z-score":0.99,"nuclei per well, duplicate mean":5832}
{"Target gene":"TSPAN15 (tetraspanin 15)","migration robust z-score":-0.3,"nuclei per well, duplicate mean":6770}
{"Target gene":"ARSD (arylsulfatase D)","migration robust z-score":-0.65,"nuclei per well, duplicate mean":4565}
{"Target gene":"ZNF718 (zinc finger protein 718)","migration robust z-score":1.94,"nuclei per well, duplicate mean":5934}
{"Target gene":"ADAP2 (ArfGAP with dual PH domains 2)","migration robust z-score":-0.14,"nuclei per well, duplicate mean":5338}
{"Target gene":"ZNF554 (zinc finger protein 554)","migration robust z-score":-0.33,"nuclei per well, duplicate mean":5863}
{"Target gene":"SLC39A4","migration robust z-score":-0.31,"nuclei per well, duplicate mean":6106}
{"Target gene":"SLC25A42","migration robust z-score":-0.5,"nuclei per well, duplicate mean":6570}
{"Target gene":"DEFA4 (defensin alpha 4)","migration robust z-score":-0.25,"nuclei per well, duplicate mean":4525}
{"Target gene":"JADE1 (jade family PHD finger 1)","migration robust z-score":0.91,"nuclei per well, duplicate mean":5354}
{"Target gene":"FAM13B (family with sequence similarity 13 member B)","migration robust z-score":1.62,"nuclei per well, duplicate mean":6884}
{"Target gene":"GYPE (glycophorin E (MNS blood group))","migration robust z-score":0.57,"nuclei per well, duplicate mean":6048}
